These are yes or no findings as the source states them, for the method shown. Binding seen in cells or lysates may run through a third protein. A yes stands for co-enrichment or nearness to the bait. Other partners may have been found.

Protein sequences, listed by entry. Tags and fused reporters are not part of them.
UniProt P51532: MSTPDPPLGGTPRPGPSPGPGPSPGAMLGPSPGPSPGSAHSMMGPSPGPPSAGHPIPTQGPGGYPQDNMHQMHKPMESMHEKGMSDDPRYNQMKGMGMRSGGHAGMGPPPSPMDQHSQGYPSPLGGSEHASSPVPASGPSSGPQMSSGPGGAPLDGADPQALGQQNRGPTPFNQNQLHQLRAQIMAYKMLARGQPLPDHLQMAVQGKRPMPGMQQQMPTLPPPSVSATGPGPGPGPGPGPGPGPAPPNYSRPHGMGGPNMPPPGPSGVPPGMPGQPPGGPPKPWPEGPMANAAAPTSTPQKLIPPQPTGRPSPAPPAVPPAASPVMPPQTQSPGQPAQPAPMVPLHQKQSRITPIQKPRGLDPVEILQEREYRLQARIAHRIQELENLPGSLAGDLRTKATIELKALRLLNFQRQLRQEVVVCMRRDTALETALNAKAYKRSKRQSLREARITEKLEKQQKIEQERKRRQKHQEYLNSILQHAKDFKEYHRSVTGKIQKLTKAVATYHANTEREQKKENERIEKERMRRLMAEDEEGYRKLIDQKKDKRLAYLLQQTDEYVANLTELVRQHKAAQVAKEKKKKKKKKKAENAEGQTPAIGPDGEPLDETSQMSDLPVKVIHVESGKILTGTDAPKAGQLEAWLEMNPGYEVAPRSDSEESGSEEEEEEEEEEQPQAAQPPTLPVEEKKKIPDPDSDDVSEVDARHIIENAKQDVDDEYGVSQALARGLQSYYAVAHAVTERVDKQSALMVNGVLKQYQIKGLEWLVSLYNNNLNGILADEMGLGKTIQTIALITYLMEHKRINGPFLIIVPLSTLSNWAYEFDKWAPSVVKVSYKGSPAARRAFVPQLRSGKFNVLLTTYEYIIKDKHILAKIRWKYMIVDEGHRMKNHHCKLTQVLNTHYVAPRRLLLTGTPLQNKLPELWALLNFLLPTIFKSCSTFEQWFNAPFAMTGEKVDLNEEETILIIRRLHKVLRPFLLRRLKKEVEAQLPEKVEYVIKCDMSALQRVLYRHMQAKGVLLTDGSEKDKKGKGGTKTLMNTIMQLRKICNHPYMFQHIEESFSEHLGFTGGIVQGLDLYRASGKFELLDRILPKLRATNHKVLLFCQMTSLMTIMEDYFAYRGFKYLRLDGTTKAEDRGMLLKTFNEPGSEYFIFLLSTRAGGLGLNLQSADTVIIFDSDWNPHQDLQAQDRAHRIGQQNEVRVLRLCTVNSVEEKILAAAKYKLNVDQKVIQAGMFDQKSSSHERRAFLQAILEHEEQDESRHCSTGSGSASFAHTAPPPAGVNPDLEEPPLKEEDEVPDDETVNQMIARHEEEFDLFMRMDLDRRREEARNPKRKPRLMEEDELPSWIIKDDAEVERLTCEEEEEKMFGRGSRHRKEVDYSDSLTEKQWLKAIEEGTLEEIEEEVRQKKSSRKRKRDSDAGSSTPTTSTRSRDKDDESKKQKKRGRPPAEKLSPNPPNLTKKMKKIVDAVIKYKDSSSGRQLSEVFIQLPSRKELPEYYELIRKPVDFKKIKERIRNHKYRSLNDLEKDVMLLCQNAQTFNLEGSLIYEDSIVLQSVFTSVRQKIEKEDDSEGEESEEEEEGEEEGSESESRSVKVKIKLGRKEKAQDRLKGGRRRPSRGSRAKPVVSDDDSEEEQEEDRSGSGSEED
UniProt Q86U86: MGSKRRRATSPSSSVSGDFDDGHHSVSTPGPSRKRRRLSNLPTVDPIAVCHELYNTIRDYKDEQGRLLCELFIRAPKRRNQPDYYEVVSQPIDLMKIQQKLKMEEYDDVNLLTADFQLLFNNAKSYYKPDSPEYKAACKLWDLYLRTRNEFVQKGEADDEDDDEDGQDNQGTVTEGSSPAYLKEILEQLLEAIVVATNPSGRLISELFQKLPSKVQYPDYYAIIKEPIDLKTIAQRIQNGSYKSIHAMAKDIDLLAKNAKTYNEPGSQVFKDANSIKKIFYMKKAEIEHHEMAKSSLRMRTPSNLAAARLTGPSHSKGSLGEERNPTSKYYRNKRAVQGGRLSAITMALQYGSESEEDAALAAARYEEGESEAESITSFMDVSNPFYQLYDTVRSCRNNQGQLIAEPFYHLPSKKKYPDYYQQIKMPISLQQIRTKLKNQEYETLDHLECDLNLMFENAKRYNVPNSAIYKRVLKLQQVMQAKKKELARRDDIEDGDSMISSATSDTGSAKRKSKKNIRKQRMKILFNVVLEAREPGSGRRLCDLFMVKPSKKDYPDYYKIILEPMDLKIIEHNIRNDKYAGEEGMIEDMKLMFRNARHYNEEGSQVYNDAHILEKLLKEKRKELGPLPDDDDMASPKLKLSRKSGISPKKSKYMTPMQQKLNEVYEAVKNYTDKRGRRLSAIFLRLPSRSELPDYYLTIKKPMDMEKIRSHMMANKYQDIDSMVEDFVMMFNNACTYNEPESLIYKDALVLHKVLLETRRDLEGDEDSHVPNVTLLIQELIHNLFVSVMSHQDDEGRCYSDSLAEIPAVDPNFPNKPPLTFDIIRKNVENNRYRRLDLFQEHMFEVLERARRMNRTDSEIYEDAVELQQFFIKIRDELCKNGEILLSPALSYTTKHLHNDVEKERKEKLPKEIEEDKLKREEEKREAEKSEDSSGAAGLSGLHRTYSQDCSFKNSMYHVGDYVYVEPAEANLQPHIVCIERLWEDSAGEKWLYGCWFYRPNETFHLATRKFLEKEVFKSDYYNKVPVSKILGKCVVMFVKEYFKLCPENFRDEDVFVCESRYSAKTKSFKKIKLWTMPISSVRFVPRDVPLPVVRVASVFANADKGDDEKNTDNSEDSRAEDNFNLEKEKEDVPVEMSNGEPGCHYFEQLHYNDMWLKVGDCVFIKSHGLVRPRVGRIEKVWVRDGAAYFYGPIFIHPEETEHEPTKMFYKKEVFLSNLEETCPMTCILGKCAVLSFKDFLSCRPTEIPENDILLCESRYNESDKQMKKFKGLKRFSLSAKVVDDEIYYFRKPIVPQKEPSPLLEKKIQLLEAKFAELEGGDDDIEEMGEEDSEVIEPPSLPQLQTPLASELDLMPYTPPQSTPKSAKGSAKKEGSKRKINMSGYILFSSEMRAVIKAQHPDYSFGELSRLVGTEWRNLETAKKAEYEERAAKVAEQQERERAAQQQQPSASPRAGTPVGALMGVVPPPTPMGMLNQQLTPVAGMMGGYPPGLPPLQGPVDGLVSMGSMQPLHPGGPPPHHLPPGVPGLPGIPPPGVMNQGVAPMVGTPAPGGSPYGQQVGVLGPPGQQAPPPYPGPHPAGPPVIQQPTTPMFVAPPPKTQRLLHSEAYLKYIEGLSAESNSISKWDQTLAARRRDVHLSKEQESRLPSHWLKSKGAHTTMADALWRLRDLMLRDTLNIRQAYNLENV

The target in experiment [1] is BRG1 (encoded by SMARCA4) (human (endogenous in HEK293T, RH4, RH30)) (UniProt P51532). Nature of the experiment: affinity purification with mass spectrometry; SEC-IP-LCMS: 1-2 megadalton SEC fractions (16-18) of ammonium sulfate precipitated nuclear extracts of RH30 and RH4 cells, diluted 1:1 in SEC-IP buffer; 3 µg BRG1, PBRM1 (results also: BRM) or non-specific IgG antibody, ~16 h 4 °C; Protein A Dynabeads 4 h; on-bead trypsin digestion, LCMS.

For experiment [2], the target named is PBRM1 (human (endogenous in HEK293T, RH4, RH30)) (UniProt Q86U86). The description is as above.

B1: PHF10 (protein, UniProt Q8WUB8 1-498)
chain: MAAAAGPGAALSPRPCDSDPATPGAQSPKDDNEDNSNDGTQPSKRRRMGSGDSSRSCETSSQDLGFSYYPAENLIEYKWPPDETGEYYMLQEQVSEYLGVTSFKRKYPDLERRDLSHKEKLYLRELNVITETQCTLGLTALRSDEVIDLMIKEYPAKHAEYSVILQEKERQRITDHYKEYSQMQQQNTQKVEASKVPEYIKKAAKKAAEFNSNLNRERMEERRAYFDLQTHVIQVPQGKYKVLPTERTKVSSYPVALIPGQFQEYYKRYSPDELRYLPLNTALYEPPLDPELPALDSDGDSDDGEDGRGDEKRKNKGTSDSSSGNVSEGESPPDSQEDSFQGRQKSKDKAATPRKDGPKRSVLSKSVPGYKPKVIPNAICGICLKGKESNKKGKAESLIHCSQCENSGHPSCLDMTMELVSMIKTYPWQCMECKTCIICGQPHHEEEMMFCDMCDRGYHTFCVGLGAIPSGRWICDCCQRAPPTPRKVGRRGKNSKEG
Consider B1, for which the binding result in experiment [1] and in experiment [2] was “binds” each time.

The values above are taken from PMC8626462.
